Data source: PubChem BioAssay AID504744 (Drosophila RNAi Screening Center, 2011)
In all, the deposit lists about 23,000 reagents; this is an unselected part of those with a known target gene and a result. Over the whole deposit, 98 (0.43%) were called active. 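Only hit calls are given; the phospho-dAkt signals, z-scores and hit direction were not deposited.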 A plus sign joins genes that one reagent is predicted to hit.

Assay: 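Find genes whose loss alters insulin-driven dAkt phosphorylation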 (primary screen)
Cell system: Drosophila Kc167 cells
Reagent: long dsRNA against Drosophila genes, 250 ng dsRNA per well of a 384-well plate
Duration: 3 days of knock-down, then overnight serum-free starvation before stimulation
Treatment: bovine insulin at 387 nM for 10 minutes after 12 h without serum
Measured: 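In-cell antibody fluorescence for phospho-dAkt in each well over DNA-dye signal, with log2 residuals expressed as z-scores adjusted for cell count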
Call rule: 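Under insulin, a gene counts as a hit if the average z-score of two replicates lies above 2.5 or below -2.5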

| Gene | amplicon | call |
| --- | --- | --- |
| yellow-c + CIAPIN1 | DRSC01898 | inactive |
| Gyc89Da | DRSC15008 | inactive |
| CG13002 | DRSC19521 | inactive |
| Trf4-1 | DRSC17775 | inactive |
| Cyp309a2 | DRSC00526 | inactive |
| CG8051 | DRSC20077 | inactive |
| CG2930 | DRSC17730 | inactive |
| UQCR-C2 | DRSC10405 | inactive |
| Usp5 | DRSC08244 | inactive |
| Hmgcr | DRSC16704 | inactive |
| Sodh2 | DRSC16865 | inactive |
| CG3225 | DRSC00578 | inactive |
| GluRIIB | DRSC03335 | inactive |
| Pdi | DRSC11250 | inactive |
| Myo31DF | DRSC03376 | inactive |
| Myo31DF | DRSC22702 | inactive |
| CG12239 | DRSC17832 | inactive |
| Cpr62Bb | DRSC08404 | inactive |
| CG44098 | DRSC12214 | inactive |
| CG44098 | DRSC12327 | inactive |
| CG5823 | DRSC15881 | inactive |
| CG31360 | DRSC13255 | inactive |
| CG7381 | DRSC16238 | inactive |
| CR16735 | DRSC15144 | inactive |
| Socs44A | DRSC06828 | inactive |
| CG32628 (retired record) | DRSC19405 | inactive |
| CG5196 | DRSC15735 | inactive |
| CG30278 | DRSC22787 | inactive |
| CG31706 | DRSC22704 | inactive |
| ppk8 | DRSC17269 | inactive |
| kcc | DRSC04316 | inactive |
| kcc | DRSC04516 | inactive |
| CG7912 | DRSC16343 | inactive |
| oxt | DRSC08522 | inactive |
| CheB42a | DRSC22881 | inactive |
| CG12935 + Nop10 | DRSC07025 | inactive |
| Ccp84Ab | DRSC12587 | inactive |
| Treh | DRSC04548 | inactive |
| Caf1-105 | DRSC06209 | inactive |
| Ugt37E1 | DRSC02248 | inactive |
| Obp56c | DRSC06552 | inactive |
| Obp56c | DRSC22325 | inactive |
| CG7728 | DRSC10907 | inactive |
| SLO2 | DRSC06212 | inactive |
| SLO2 | DRSC06214 | inactive |
| SLO2 | DRSC06216 | inactive |
| SLO2 | DRSC06218 | inactive |
| SLO2 | DRSC06219 | inactive |
| Pex7 | DRSC10651 | inactive |
| Gbs-76A | DRSC11081 | inactive |
| Lcp65Ab2 + Lcp65Ab1 | DRSC10340 | inactive |
| Lcp65Ab2 + Lcp65Ab1 | DRSC10343 | inactive |
| Sec20 | DRSC12295 | inactive |
| CG33143 | DRSC04151 | inactive |
| CG33143 | DRSC04454 | active |
| sta | DRSC18838 | inactive |
| maf-S | DRSC07348 | inactive |
| CG3907 | DRSC04432 | inactive |
| CG1090 | DRSC12150 | inactive |
| CG1090 | DRSC21604 | inactive |
| CIAPIN1 | DRSC03559 | inactive |
| Prx6c + CG12896 + Prx6b | DRSC06148 | inactive |
| CG17292 | DRSC02594 | inactive |
| Alp5 | DRSC14269 | inactive |
| CG13868 | DRSC06427 | inactive |
| CG31867 | DRSC03338 | inactive |
| HUWE1 | DRSC20089 | inactive |
| CG13097 | DRSC02199 | inactive |
| S-Lap8 | DRSC06870 | inactive |
| S-Lap8 | DRSC21372 | inactive |
| CG14983 | DRSC08441 | inactive |
| CG13561 | DRSC04199 | inactive |
| slif | DRSC11635 | inactive |
| viaf | DRSC10326 | inactive |
| CG18190 | DRSC06714 | inactive |
| Ir52d | DRSC06264 | inactive |
| modSP | DRSC16726 | inactive |
| modSP | DRSC16857 | inactive |
| modSP | DRSC21489 | inactive |
| Ttc1 | DRSC15016 | inactive |
| Ttc1 | DRSC22469 | inactive |
| Mst57Da | DRSC16744 | inactive |
| CG11777 | DRSC06081 | inactive |
| CG5770 | DRSC06954 | inactive |
| IntS3 | DRSC21215 | inactive |
| SkpD | DRSC22208 | inactive |
| mmm | DRSC10208 | inactive |
| CG8343 | DRSC04905 | inactive |
| CG7016 | DRSC16174 | inactive |
| Mi-2 + Su(Tpl) | DRSC09640 | inactive |
| CG2812 | DRSC04319 | inactive |
| CG13794 | DRSC02298 | inactive |
| Obp28a | DRSC03394 | inactive |
| Drsl4 | DRSC08034 | inactive |
| St4 | DRSC07008 | inactive |
| Trap1 | DRSC05019 | inactive |
| Or82a | DRSC11996 | inactive |
| CG16998 | DRSC10235 | inactive |
| CG10286 | DRSC12520 | inactive |
| CG13631 | DRSC14632 | inactive |
| dj-1beta | DRSC14599 | inactive |
| CG30265 | DRSC21592 | inactive |
| CG30280 | DRSC21761 | inactive |
| CG18754 | DRSC15387 | inactive |
| Acbp2 | DRSC11141 | inactive |
| Qsox1 | DRSC06878 | inactive |
| Prp19 | DRSC07434 | inactive |
| Pi3K21B | DRSC00771 | active |
| spoon | DRSC18299 | inactive |
| FucTD | DRSC08634 | inactive |
| CG15375 | DRSC18045 | inactive |
| CG14034 | DRSC02359 | inactive |
| rno | DRSC08584 | inactive |
| CG14480 | DRSC06452 | inactive |
| CR30409 | DRSC22058 | inactive |
| CG15818 | DRSC02505 | inactive |
| Atx-1 | DRSC18365 | inactive |
| car | DRSC20316 | inactive |
| CG34445 | DRSC22404 | inactive |
| lncRNA:roX1 | DRSC21884 | inactive |
| CG3906 | DRSC04431 | inactive |
| O-fut2 | DRSC18608 | inactive |
| CG4161 | DRSC01930 | inactive |
| aub | DRSC03486 | inactive |
| nito | DRSC05943 | inactive |
| CG13502 | DRSC04147 | inactive |
| prd1 | DRSC15227 | inactive |
| Sdb | DRSC06272 | inactive |
| Sdb | DRSC06273 | inactive |
| Sdb | DRSC07155 | inactive |
| CG7992 | DRSC20070 | inactive |
| Spn77Bb + Spn77Bc | DRSC10689 | inactive |
| Spn77Bb + Spn77Bc | DRSC11793 | inactive |
| Nep3 | DRSC20685 | inactive |
| Coa7 | DRSC20967 | inactive |
| CG13858 (retired record) | DRSC14708 | inactive |
| CG13858 (retired record) | DRSC14709 | inactive |
| CG13858 (retired record) | DRSC14710 | inactive |
| CG13858 (retired record) | DRSC14711 | inactive |
| Nepl20 | DRSC14878 | inactive |
| glu | DRSC03539 | inactive |
| Nurf-38 | DRSC04629 | inactive |
| CG17380 | DRSC15230 | inactive |
| cora | DRSC07597 | inactive |
| CG34056 | DRSC08374 | inactive |
| mEFTs | DRSC02953 | inactive |
| CG3483 | DRSC04371 | inactive |
| Aldh | DRSC02717 | inactive |
| CG30002 | DRSC05182 | inactive |
| CG14073 | DRSC10078 | inactive |
| l(2)37Bb | DRSC02088 | inactive |
| Nmdmc | DRSC16760 | inactive |
| CG5880 | DRSC15906 | inactive |
| CG7916 | DRSC01901 | inactive |
| klar | DRSC08718 | inactive |
| klar | DRSC22393 | inactive |
| CG30394 | DRSC04074 | inactive |
| CG30394 | DRSC04260 | inactive |
